Assay results reported in publication PMC10912283.
These are yes or no findings as the source states them, for the method shown. Binding seen in cells or lysates may run through a third protein. Some results given as binding are weak or reduced against the parent protein; the word gives no strength.

Amino acid sequences for entries named in this document (tags omitted).
UniProt P27695: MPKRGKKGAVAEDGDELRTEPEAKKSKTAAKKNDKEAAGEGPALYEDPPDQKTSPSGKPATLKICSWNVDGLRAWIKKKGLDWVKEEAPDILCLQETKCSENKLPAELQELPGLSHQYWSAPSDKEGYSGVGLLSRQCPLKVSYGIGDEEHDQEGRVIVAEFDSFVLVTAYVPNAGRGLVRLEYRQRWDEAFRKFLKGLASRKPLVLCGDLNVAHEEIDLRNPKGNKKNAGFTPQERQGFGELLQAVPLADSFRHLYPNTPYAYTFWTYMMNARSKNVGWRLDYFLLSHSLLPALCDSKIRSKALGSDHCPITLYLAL
UniProt P67809: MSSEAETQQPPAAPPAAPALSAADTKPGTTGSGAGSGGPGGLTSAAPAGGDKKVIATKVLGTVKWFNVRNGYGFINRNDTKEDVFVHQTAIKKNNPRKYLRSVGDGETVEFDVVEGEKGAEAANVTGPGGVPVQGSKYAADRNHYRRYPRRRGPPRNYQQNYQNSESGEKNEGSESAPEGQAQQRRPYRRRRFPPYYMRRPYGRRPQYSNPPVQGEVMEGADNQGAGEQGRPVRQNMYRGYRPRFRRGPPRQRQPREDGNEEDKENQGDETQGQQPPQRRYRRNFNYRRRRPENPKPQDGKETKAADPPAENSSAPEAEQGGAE
UniProt Q13283: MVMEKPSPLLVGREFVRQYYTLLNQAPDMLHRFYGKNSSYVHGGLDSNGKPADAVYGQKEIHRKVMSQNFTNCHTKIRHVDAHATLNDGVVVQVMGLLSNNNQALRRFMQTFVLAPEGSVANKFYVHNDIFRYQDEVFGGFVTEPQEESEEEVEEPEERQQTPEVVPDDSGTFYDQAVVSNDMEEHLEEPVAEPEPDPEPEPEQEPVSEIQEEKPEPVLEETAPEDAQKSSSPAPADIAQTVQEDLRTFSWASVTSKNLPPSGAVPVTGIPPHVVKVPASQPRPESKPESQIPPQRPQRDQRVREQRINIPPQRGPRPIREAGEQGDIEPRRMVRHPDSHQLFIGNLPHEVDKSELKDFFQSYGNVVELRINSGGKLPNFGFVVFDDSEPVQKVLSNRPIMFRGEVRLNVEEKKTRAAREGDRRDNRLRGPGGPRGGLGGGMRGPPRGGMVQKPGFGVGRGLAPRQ

How the values were obtained:
[1] = biological target: Apurinic/apyrimidinic endodeoxyribonuclease 1 (APE1) (human (endogenous in SKOV3)) (UniProt P27695); assay: co-IP; SKOV3 cell lysate, anti-APE1 antibody and agarose beads at 4 °C overnight, Western blot with anti-YBX1 and anti-G3BP1; untreated cells and cells exposed to H2O2 for increasing times (more YBX1 and G3BP1 co-precipitated upon treatment, particularly after 4 h)
[2] = biological target: Apurinic/apyrimidinic endodeoxyribonuclease 1 (APE1) (human (endogenous in SKOV3)) (UniProt P27695); assay: co-IP; cytoplasmic fraction of SKOV3 cells obtained by subcellular fractionation, anti-APE1 antibody, Western blot with anti-YBX1 and anti-G3BP1

Substance | binding [1] | binding [2]
Y-Box binding protein 1 (YBX1) (from UniProt P67809 1-324) | binds | binds
G3BP1 (from UniProt Q13283 1-466) | binds | binds
